Test: Shale dispersion test, hot rolling cuttings in field mud
Details: Foss Eikland Cuttings (4.6-8.0 mm), hot rolled 16 hours at 150° F.

In the case of `OCCNCCCOCCNCCO` [(I)], the “Total Recovered” value (Base Field Mud (11.78 ppb) potassium based lignite + 21 ppb (I)) is reported as 78.0% and the “Total Recovered” value (Base Field Mud (16.8 ppb) chrome free lignosulfonate + 10.5 ppb (I)) is reported as 85.3%.

Reference: patent US7250390B2, “High performance water based drilling fluids and method of use” (M-I L.L.C., priority 2002, dated 2007)
